No constants are given. Whether binding was seen depends on the method and setting. In cells and extracts the contact can be indirect. Some entries that bind do so weakly or less than the wild type.
Columns and labels:
[1] = molecular target: PAX6 (human (endogenous in primary LSCs)) (UniProt P26367); assay: co-IP; nuclear extract of primary LSCs diluted to 150 mM salt; endogenous proteins immunoprecipitated with anti-PAX6, anti-RUNX1 or anti-pSMAD3 overnight at 4 °C, captured on Protein A/G Dynabeads, western blot
[2] = molecular target: RUNX1 (human (endogenous in primary LSCs)) (UniProt Q01196); assay: as above

Sequences of proteins named here, by UniProt entry; tags and fusion partners are left off.
UniProt P26367: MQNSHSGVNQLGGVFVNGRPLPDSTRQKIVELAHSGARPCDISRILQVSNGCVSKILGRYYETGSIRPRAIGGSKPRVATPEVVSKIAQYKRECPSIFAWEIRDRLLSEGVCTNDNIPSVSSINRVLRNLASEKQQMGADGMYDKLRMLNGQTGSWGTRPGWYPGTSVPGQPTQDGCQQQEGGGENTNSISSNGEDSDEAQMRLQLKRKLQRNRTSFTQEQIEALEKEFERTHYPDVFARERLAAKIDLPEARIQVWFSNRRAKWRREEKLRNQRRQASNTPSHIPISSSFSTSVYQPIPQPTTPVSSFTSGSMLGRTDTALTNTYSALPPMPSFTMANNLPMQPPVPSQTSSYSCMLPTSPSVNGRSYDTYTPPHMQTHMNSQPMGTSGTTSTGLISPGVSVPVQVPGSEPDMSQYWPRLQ
UniProt Q01196: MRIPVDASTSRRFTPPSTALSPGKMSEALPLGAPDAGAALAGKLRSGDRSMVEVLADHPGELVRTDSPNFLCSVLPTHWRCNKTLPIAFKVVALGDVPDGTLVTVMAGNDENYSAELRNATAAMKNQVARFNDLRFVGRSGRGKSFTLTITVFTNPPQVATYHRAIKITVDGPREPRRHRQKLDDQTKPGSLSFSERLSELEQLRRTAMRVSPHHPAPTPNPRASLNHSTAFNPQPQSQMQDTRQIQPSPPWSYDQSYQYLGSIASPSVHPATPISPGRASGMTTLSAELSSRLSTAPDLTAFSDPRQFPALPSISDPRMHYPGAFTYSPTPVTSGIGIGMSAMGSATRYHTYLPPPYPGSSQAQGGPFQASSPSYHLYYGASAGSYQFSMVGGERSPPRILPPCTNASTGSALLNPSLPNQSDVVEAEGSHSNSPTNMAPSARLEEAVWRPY
UniProt P84022: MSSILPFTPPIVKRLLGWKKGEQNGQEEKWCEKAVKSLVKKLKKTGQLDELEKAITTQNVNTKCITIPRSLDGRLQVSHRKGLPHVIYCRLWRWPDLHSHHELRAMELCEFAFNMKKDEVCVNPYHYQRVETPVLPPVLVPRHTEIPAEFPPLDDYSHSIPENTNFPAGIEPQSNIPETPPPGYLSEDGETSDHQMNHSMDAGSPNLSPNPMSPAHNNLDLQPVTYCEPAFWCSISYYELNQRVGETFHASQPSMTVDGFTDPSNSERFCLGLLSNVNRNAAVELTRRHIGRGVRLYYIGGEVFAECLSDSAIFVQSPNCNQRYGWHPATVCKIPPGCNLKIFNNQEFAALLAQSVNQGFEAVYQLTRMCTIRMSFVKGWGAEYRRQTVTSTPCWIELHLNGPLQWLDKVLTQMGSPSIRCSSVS

Q: With “phosphorylated SMAD3 (from UniProt P84022 1-425)” as the substance, how does the binding [1] read?
A: binds

Q: And the binding [2]?
A: binds

Source: PMC7814021
